A short description of data set [1]: Lipophilicity was expressed as Log D. As to conditions: octanol/water.
A short description of data set [2]: Ratio of antinociceptive activity measured using mouse acetylcholine induced abdominal constriction test by s.c. administration to that done by i.c.v. In kind it is functional, Abdomen.

As to `CC(=O)N1CCN(C(=O)Cc2cccc([N+](=O)[O-])c2)C(CN2CC[C@H](O)C2)C1` (some centres not stated), the logD in data set [1] is -0.1. Besides, the Ratio in data set [2] amounted to 123.

Values taken from ChEMBL document CHEMBL1126165, “Preparation and evaluation of some hydrophilic phenylacetyl-piperazines as peripherally selective -opioid receptor agonists” (Bioorg Med Chem Lett, 1992).
